This note sets out measurements from publication PMC6025110.

Protein sequences, listed by entry. Tags and fused reporters are not part of them. Residues count along the entry.
UniProt Q14667, residues 32-2235: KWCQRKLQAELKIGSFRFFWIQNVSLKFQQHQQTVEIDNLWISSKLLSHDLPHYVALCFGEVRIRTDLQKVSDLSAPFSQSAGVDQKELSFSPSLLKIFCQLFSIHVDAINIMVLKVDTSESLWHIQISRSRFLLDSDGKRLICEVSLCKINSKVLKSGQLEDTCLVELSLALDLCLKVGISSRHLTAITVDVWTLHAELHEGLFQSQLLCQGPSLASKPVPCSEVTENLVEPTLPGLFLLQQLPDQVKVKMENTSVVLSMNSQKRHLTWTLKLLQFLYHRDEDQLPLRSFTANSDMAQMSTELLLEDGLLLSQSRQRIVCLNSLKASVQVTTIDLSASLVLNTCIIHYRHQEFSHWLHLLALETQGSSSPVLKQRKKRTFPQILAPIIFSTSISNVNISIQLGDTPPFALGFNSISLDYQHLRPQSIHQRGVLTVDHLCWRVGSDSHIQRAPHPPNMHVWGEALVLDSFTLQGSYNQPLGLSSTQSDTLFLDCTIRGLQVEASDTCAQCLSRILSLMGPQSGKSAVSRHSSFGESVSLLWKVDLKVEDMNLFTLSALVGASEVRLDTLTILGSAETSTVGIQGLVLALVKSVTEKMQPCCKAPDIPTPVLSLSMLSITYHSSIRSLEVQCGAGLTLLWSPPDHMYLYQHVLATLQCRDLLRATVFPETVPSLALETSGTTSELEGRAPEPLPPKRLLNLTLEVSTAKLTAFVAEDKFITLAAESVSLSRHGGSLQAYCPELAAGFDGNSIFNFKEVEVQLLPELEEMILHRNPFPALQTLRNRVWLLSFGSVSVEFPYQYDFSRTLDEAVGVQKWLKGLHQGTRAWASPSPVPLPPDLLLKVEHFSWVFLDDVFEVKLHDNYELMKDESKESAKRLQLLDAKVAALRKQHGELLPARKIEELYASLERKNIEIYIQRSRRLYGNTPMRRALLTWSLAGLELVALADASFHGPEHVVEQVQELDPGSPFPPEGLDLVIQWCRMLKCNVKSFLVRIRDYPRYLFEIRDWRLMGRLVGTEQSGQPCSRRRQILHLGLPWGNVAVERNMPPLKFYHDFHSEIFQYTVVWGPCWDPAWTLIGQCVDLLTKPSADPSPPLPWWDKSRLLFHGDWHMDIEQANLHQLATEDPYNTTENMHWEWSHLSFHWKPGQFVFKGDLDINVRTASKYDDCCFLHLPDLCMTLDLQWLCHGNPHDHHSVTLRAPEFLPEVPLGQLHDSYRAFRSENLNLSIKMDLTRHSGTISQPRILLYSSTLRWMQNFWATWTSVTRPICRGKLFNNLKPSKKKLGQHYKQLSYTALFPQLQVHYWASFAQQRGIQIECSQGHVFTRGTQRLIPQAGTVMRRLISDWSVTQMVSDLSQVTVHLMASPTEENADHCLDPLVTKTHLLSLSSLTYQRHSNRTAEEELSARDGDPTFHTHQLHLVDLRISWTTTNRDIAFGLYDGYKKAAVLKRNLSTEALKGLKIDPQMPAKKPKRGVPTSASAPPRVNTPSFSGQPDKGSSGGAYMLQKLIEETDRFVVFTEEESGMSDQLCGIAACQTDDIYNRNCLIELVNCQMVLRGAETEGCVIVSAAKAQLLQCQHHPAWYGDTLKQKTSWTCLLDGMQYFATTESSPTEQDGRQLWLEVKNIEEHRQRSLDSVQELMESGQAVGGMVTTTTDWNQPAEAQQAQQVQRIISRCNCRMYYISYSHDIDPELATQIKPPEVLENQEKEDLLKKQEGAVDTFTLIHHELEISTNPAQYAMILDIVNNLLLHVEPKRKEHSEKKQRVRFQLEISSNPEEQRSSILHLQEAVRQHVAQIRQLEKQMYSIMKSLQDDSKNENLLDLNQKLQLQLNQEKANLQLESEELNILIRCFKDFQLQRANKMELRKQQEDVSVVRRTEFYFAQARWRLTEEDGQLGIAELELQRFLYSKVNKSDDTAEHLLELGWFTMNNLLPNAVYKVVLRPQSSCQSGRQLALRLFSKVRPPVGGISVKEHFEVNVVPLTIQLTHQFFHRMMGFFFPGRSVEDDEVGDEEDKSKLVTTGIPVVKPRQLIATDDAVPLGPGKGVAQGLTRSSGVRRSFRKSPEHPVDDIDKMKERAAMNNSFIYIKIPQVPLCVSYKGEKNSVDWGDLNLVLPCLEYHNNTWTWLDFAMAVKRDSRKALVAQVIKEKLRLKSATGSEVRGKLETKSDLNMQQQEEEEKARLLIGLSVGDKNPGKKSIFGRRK
UniProt P0DMV8: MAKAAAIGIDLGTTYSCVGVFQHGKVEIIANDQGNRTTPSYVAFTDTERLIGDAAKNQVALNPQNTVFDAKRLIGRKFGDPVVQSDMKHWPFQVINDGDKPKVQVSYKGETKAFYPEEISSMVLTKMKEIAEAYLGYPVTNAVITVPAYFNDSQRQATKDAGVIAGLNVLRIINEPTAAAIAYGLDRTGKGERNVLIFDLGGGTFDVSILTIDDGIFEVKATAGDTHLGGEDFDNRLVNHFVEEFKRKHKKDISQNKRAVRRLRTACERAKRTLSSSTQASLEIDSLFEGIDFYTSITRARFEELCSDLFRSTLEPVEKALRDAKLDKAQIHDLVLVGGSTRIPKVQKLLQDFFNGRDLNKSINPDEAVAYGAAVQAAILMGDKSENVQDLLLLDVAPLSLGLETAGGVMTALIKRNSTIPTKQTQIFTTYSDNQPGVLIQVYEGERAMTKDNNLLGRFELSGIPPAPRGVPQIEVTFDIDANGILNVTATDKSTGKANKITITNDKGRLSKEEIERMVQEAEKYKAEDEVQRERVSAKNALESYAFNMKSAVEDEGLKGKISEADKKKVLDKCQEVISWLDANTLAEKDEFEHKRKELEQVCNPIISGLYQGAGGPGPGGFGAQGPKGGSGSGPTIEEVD

This assay deals with recombinant KIAA0100 protein with FLAG and Myc tags on its C-terminus (human) (UniProt Q14667). The assay can be described thus: affinity purification with mass spectrometry; HEK293/pKIA cells cross-linked with DTBP, lysed; recombinant KIAA0100 captured by anti-FLAG antibody; SDS-PAGE, coomassie, six gel slices (S1-S6) analysed by mass spectrometry; controls anti-DIG isotype antibody and bare beads.

These are yes or no findings as the source states them, for the method shown. Binding seen in cells or lysates may run through a third protein. These calls come from enrichment with a bait or labelling near it, and not all partners need be listed.

Take HSPA1A (from UniProt P0DMV8 1-641): the binding result is reported as “binds”.
